Laboratory results from the supplement of paper PMC4635364.
Where a name gives a salt, the structure may show the parent alone. Some of the results follow. Repeats in this data set agree poorly, so a single value says little.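 ReNCell VM, a human fetal ventral-midbrain neural progenitor line, was differentiated without mitogens. Blinded raters scored images stained for doublecortin (early neurons) or tyrosine hydroxylase (dopaminergic neurons) against untreated wells (0 = no change). Scores were averaged across repeats and both raters, and compounds averaging 2 or more were selected as hits for retesting.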

tested on: ReNCell VM; assay: dopaminergic neuron differentiation score (TH+ cell fraction vs untreated, manual image score) (score (0 to 3)); higher = more TH+ dopaminergic neuron differentiation; details: library: Spectrum; 2 uM; 4 weeks; BDNF 10 ng/ml + GDNF 10 ng/ml

Dopaminergic neuron differentiation score, inactive:
NCCNC(=O)c1ccc(Cl)cc1 0
COc1ccc(C=CC(=O)O)cc1OC 0
Cc1cn([C@H]2C=C[C@@H](CO)O2)c(=O)[nH]c1=O 1
COc1ccc(-c2cc(=O)c3c(OC)c(OC)c(OC)c(OC)c3o2)cc1OC 0

same assay, conditions: library: Tocriscreen; 2 uM; 4 weeks; BDNF 10 ng/ml + GDNF 10 ng/ml

Dopaminergic neuron differentiation score, inactive:
O=C(Nc1ccccc1)N[C@@H]1C[C@@H](C(=O)O)Nc2cc(Cl)cc(Cl)c21 0
CN(C)C(=O)n1nnnc1Cc1ccc(-c2ccccc2)cc1 0
CCc1ccc(OCc2ccccc2C(=O)Nc2ccc3nc(C)cc(N)c3c2)cc1 0
COc1ccc(Nc2nccc(NCCO)n2)cc1 [Cardiogenol C hydrochloride] 1
